Results reported in US7537910B2 (Discoverx Corp., priority 2005, dated 2009).

Test: peptide made by a vendor
Conditions: late stage modification step

For “Ac-CSLAVVLQRRDWENPGVTQLNRLAAHPPFASWRNSEEARTDCPSQQL”, the step yield was 50%.
